# Patent publication US10624917B2, “Compositions and methods useful for treating or preventing liver diseases or disorders, and promoting weight loss” (YALE UNIVERSITY, priority 2014, dated 2020)
# At least one structure is not confirmed: it was looked up by name or label, or the drawing left a doubt.
# Tested on: Il1b and other genes in PECs
# Experiment: Quantitative real-time RT-PCR gene expression in PECs
# Assay type: cell-based, mouse
# Conditions: 6 hours, indicated doses
# Experimental: FIGS. 3A-3I illustrate the finding that adenosine supersedes LPS induced tolerance and increases IL-1β production by upregulating transcription of pro-IL-1β via cAMP-PKA pathway. PECs were used in all of the following experiments. FIG. 3A: Primed (pri) with LPS (100 ng/ml) for 16 hours followed by stimulation (stim) with LPS (100 ng/ml), or NECA (10 μM) or CGS21680 (10 μM) in the presence or absence of LPS (100 ng/ml) for 6 hours. FIG. 3B: Treated with forskolin for 6 hours as indicated doses with and without LPS priming FIG. 3C: Treated with or without NECA (10 μM), CGS21680 (10 μM) or db-cAMP (200 μM) for 6 hours. FIG. 3D: LPS primed and treated with NECA or CGS21680 in the presence and absence of SQ22536, H89 and PKi. […] The cells were harvested and RNA isolated after each treatment and the gene expression of Il1b and other genes as indicated quantified by real-time PCR using specific primers. […] Data are expressed as the mean±SD from three independent experiments Immunoblots shown are representative results from at least three independent experiments. *p<0.05 determined by Student's t-test.
# FIGS. 9A-9H illustrate changes in expression of cytokines and tissue repair genes in peritoneal macrophages in response to adenosine agonists. […] Data are expressed as the mean±SD from three independent experiments. *p<0.05 determined by Student's t-test. […]
smiles,measurement,value
C=C[C@@]1(C)CC(=O)[C@]2(O)[C@@]3(C)[C@@H](O)CCC(C)(C)[C@@H]3[C@H](O)[C@H](OC(C)=O)[C@@]2(C)O1 [forskolin],induction of Il1b gene,induced the induction of Il1b gene in a dose dependent manner
